Results reported in patent US6706762.
These are yes or no findings as the source states them, for the method shown. Some results given as binding are weak or reduced against the parent protein; the word gives no strength. Tags and fused reporters may be left off the sequences shown.

Sequences of proteins named here, by UniProt entry; tags and fusion partners are left off. Residues count along the entry.
UniProt Q9Y618, residues 1020-2514: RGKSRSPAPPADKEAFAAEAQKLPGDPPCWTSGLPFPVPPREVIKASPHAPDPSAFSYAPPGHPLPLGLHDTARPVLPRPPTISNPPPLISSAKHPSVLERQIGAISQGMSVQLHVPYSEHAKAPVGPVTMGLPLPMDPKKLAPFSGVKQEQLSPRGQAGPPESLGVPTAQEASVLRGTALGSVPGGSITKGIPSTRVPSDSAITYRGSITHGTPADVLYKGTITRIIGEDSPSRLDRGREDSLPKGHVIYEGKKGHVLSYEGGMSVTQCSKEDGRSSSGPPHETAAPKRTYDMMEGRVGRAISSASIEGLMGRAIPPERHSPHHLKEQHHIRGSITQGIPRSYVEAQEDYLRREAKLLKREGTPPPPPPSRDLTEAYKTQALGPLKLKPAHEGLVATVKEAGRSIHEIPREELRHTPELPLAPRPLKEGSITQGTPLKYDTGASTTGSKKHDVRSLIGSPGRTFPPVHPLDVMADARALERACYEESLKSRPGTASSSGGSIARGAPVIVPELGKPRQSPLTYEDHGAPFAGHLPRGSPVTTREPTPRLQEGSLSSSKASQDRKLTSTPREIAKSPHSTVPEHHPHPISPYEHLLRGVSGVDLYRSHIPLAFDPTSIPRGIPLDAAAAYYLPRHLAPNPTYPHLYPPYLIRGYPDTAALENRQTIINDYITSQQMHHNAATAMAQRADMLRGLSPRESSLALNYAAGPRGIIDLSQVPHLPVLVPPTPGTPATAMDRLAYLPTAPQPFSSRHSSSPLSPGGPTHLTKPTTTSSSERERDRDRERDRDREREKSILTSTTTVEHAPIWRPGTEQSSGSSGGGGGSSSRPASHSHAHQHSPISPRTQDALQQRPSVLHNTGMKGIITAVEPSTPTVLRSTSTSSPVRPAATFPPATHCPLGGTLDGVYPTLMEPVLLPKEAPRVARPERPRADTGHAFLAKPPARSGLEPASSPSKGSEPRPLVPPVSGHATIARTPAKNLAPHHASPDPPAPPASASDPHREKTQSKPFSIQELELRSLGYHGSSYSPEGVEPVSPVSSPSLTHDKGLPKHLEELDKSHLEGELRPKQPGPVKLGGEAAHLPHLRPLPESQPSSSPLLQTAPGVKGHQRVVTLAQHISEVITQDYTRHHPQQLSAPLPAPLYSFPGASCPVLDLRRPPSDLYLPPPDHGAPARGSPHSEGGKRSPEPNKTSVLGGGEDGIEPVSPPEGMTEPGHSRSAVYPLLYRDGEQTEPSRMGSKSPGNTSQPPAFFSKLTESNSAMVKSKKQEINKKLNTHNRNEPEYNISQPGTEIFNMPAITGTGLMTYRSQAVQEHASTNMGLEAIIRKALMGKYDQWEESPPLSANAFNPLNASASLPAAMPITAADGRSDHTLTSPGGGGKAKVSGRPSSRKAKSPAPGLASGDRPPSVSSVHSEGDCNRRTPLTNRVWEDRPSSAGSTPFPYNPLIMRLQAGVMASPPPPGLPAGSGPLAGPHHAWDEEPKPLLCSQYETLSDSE

Target: T1, HA-PLZF (UniProt Q05516)
T1 sequence (looked up): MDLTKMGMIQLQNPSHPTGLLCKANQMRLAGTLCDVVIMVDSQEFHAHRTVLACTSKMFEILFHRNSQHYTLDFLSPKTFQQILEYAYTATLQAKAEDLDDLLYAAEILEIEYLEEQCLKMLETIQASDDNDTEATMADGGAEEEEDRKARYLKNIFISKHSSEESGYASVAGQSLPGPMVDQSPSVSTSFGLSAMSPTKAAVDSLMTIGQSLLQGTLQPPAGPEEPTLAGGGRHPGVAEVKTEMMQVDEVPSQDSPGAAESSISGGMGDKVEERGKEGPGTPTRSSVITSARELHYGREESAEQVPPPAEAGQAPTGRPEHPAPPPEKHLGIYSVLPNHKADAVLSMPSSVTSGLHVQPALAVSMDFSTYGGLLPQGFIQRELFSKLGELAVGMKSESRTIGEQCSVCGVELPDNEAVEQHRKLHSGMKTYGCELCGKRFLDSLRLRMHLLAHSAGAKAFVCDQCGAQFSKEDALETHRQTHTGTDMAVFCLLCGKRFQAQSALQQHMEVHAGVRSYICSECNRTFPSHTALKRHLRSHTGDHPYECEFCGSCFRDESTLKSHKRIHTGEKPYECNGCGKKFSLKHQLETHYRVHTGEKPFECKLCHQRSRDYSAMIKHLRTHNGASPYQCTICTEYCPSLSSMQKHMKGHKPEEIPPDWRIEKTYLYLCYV
Assay: anti-HA immunoprecipitation of in vitro translated proteins

binding: binds
Substance: SMRT (full length) (from UniProt Q9Y618 1020-2514)
